# Measurements from US8008061B2, “Trophic conversion of obligate phototrophic algae through metabolic engineering” (Martek Biosciences Corporation, priority 2000, dated 2011).
# At least one structure is not confirmed: it was looked up by name or label, or the drawing left a doubt.
# Test system: diatoms Phaeodactylum tricornutum, Cylindrotheca fusiformis, Cyclotella cryptica and Nitzschia alba
# Assay: Antibiotic sensitivity, statements for the diatoms tested together
# Format: cell-based
# Conditions: compared to effectiveness in other eukaryotic organisms
# Protocol: The diatoms Phaeodactylum tricornutum, Cylindrotheca fusiformis, Cyclotella cryptica and Nitzschia alba were extensively tested for sensitivity to a series of antibiotics for which resistance genes are available, and the lowest concentrations which completely abrogate growth were determined for each antibiotic (Table C). […] These include antibiotics such as G418, Hygromycin, Kanamycin and Spectinomycin, which are routinely utilized for selection of other eukaryotic organisms.
# The effective concentration range of the antibiotic in most cases was lowered by a factor of 10.
# Cells of each diatom species were plated on solid media at salinity equivalents of 25-100% I.O. media, with a gradient of antibiotic concentrations. After 2 weeks of illumination the growth of the cells was assessed and the concentration of antibiotic required for cell death was determined. (Table D).
structure (smiles),measurement,value
NC[C@H]1O[C@H](O[C@H]2[C@H](O)[C@@H](O[C@H]3O[C@H](CO)[C@@H](O)[C@H](N)[C@H]3O)[C@H](N)C[C@@H]2N)[C@H](O)[C@@H](O)[C@@H]1O [Kanamycin],effect on growth of the diatoms,no significant effect on growth or were effective only at very high concentrations
